Results reported in article PMC11625895.
These are yes or no findings as the source states them, for the method shown. Binding seen in cells or lysates may run through a third protein. Some binding calls cover weakened binding; strength is not graded here. Sequences can lack the tags named with a protein.

Protein sequences, listed by entry. Tags and fused reporters are not part of them.
UniProt P19525: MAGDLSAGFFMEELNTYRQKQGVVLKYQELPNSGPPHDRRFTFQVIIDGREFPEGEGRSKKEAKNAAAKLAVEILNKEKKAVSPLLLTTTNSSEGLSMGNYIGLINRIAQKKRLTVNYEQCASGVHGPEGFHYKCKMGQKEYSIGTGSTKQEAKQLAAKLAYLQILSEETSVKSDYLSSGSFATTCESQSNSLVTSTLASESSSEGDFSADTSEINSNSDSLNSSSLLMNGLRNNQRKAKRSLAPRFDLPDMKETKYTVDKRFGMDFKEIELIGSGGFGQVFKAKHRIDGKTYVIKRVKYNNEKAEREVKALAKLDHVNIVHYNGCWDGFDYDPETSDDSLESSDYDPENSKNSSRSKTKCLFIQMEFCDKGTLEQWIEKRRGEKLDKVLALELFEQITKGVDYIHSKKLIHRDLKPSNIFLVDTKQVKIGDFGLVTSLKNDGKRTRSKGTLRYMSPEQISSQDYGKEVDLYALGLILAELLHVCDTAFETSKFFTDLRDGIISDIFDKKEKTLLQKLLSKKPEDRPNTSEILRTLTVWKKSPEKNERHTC

Target: PKR (human (endogenous in HeLa)) (UniProt P19525)
Experiment: co-IP; HeLa M cells transfected with Flag-wt PACT/RAX or Flag-lear-5J, harvested 24 h later; whole-cell extract immunoprecipitated overnight at 4°C with anti-PKR antibody (71/10) on protein A sepharose in IP buffer (20 mM Tris-HCl pH 7.5, 150 mM NaCl, 1 mM EDTA, 1% Triton X-100, 20% glycerol); three washes; blot with anti-Flag M2

binding: binds
B1: Flag-tagged wt PACT/RAX (protein, UniProt Q9WTX2 1-313)
chain: MSHSRHRAEAPPLQREDSGTFSLGKMITAKPGKTPIQVLHEYGMKTKNIPVYECERSDVQVHVPTFTFRVTVGDITCTGEGTSKKLAKHRAAEAAINILKANASICFAVPDPLMPDPSKQPKNQLNPIGSLQELAIHHGWRLPEYTLSQEGGPAHKREYTTICRLESFMETGKGASKKQAKRNAAEKFLAKFSNISPENHISLTNVVGHSLGCTWHSLRNSPGEKINLLKRSLLSLPNTDYIQLLSEIASEQGFNITYLDIEELSANGQYQCLAELSTSPITVCHGSGISCGNAQSDAAHNALQYLKIIAERK
